Source: patent US11407721B2, “CIS-morpholinone and other compounds as MDM2 inhibitors for the treatment of cancer” (AMGEN INC., priority 2013, dated 2022)
Several values for one entry are separate records, joined by “and”; a condition that tells them apart may be missing. Equal values may be shown once. The structures given here were assigned with low confidence; some may be wrong.

The chains behind the UniProt entries cited, without tags or fusion partners. Residues count along the entry.
UniProt Q00987, 1-188 limits assumed: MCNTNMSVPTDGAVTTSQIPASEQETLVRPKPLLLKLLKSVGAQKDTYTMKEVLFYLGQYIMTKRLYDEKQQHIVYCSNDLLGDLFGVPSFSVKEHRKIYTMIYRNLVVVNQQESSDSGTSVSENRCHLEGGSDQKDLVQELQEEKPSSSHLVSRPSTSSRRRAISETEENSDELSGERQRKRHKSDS

Molecular target: interaction between HDM2 and p53 (GST-hMDM2 (1-188) / biotinylated-p53 (1-83)) (Homo sapiens (Human), UniProt Q00987)
Test: HTRF2 Assay (improved HTRF assay)
Type: binding
Conditions: read-out: HTRF2 IC50; 0.2 nM GST-hMDM2 (1-188), 0.5 nM biotinylated-p53 (1-83), 100 mM KF

IC50	Compound
1050 nM	CCC[C@H](C(=O)N1CCC[C@@H]1C(=O)O)N1C(=O)[C@H](Cc2ccc(F)cc2)O[C@@H](c2ccc(Cl)cc2)[C@H]1c1ccc(Cl)cc1
459 nM	CCC[C@H](C(=O)NCC[C@H](O)C(=O)O)N1C(=O)[C@H](Cc2ccc(C#N)cc2)O[C@@H](c2ccc(Cl)cc2)[C@H]1c1ccc(Cl)cc1
428 nM	CCC[C@H](C(=O)NC[C@H](O)CC(=O)O)N1C(=O)[C@H](Cc2ccc(C#N)cc2)O[C@@H](c2ccc(Cl)cc2)[C@H]1c1ccc(Cl)cc1
9940 nM	O=C1[C@@H](CC(O)CO)O[C@H](c2ccc(Cl)cc2)[C@H](c2ccc(Cl)cc2)N1CC1CC1 (some centres unmarked)
997 nM	C=CC[C@@H]1O[C@@H](c2ccc(Cl)cc2)[C@@H](c2ccc(Cl)cc2)N([C@H](CCC)C(=O)O)C1=O (relative stereo)
1940 nM	C=CC[C@@H]1O[C@@H](c2ccc(Cl)cc2)[C@@H](c2ccc(Cl)cc2)N([C@H](CCC)C(N)=O)C1=O (relative stereo)
2130 nM	CCCC[C@H](C(=O)O)N1C(=O)[C@H](Cc2ccc(F)cc2)O[C@@H](c2ccc(Cl)cc2)[C@H]1c1ccc(Cl)cc1 (relative stereo)
16400 nM	CCC[C@@H](CC(=O)O)N1C(=O)[C@@H](Cc2ccc(F)cc2)O[C@H](c2cccc(Cl)c2)[C@@H]1c1ccc(Cl)cc1 (relative stereo)
691 nM	CCC[C@H](C(=O)NCCN1CCOCC1)N1C(=O)[C@H](Cc2ccc(F)cc2)O[C@@H](c2ccc(Cl)cc2)[C@H]1c1ccc(Cl)cc1 (relative stereo)
3520 nM	CCC[C@H](C(=O)O)N1C(=O)[C@H](C[C@@H](O)CO)O[C@@H](c2ccc(Cl)cc2)[C@H]1c1ccc(Cl)cc1 (relative stereo)
1300 nM	CCC[C@H](C(=O)O)N1C(=O)[C@H](Cc2ccc(-n3cccc3)cc2)O[C@@H](c2ccc(Cl)cc2)[C@H]1c1ccc(Cl)cc1 (relative stereo)
1150 nM	CCC[C@H](C(=O)O)N1C(=O)[C@H](Cc2ccc(-n3cncn3)cc2)O[C@@H](c2ccc(Cl)cc2)[C@H]1c1ccc(Cl)cc1 (relative stereo)
1120 nM	CCC[C@H](C(=O)O)N1C(=O)[C@H](Cc2ccc(C#N)cc2F)O[C@@H](c2ccc(Cl)cc2)[C@H]1c1ccc(Cl)cc1 (relative stereo)
17900 nM	CCC[C@H](C(=O)O)N1C(=O)[C@H](Cc2ccc(F)cc2)O[C@@](C)(c2ccc(Cl)cc2)[C@H]1c1ccc(Cl)cc1 (relative stereo)
1340 nM	CCC[C@H](C(=O)O)N1C(=O)[C@H](Cc2ccc(OC)cc2)O[C@@H](c2ccc(Cl)cc2)[C@H]1c1ccc(Cl)cc1 (relative stereo)
2380 nM	CCC[C@H](C(N)=O)N1C(=O)[C@H](C[C@@H](O)CO)O[C@@H](c2ccc(Cl)cc2)[C@H]1c1ccc(Cl)cc1 (relative stereo)
752 nM	CCC[C@H](C(N)=O)N1C(=O)[C@H](C[C@@H](O)CO)O[C@@H](c2cccc(Cl)c2)[C@H]1c1ccc(Cl)cc1 (relative stereo)
1760 nM	CCC[C@H](C(N)=O)N1C(=O)[C@H](C[C@H](O)CO)O[C@@H](c2ccc(Cl)cc2)[C@H]1c1ccc(Cl)cc1 (relative stereo)
2100 nM	CCC[C@H](C(N)=O)N1C(=O)[C@H](C[C@H](O)CO)O[C@@H](c2cccc(Cl)c2)[C@H]1c1ccc(Cl)cc1 (relative stereo)
5120 nM	CCC[C@H](CO)N1C(=O)CO[C@@H](c2ccc(Cl)cc2)[C@H]1c1ccc(Cl)cc1 (relative stereo)
644 nM	CCC[C@H](CO)N1C(=O)[C@H](Cc2ccc(F)cc2)O[C@@H](c2ccc(Cl)cc2)[C@H]1c1ccc(Cl)cc1 (relative stereo)
6580 nM	CCC[C@H](COCC(=O)O)N1C(=O)CO[C@@H](c2ccc(Cl)cc2)[C@H]1c1ccc(Cl)cc1 (relative stereo)
5000 nM	NC(=O)[C@@H](c1ccc(Cl)cc1)N1C(=O)[C@H](Cc2ccc(F)cc2)O[C@@H](c2ccc(Cl)cc2)[C@H]1c1ccc(Cl)cc1 (relative stereo)
2590 nM	O=C(O)[C@@H](O)[C@@H]1O[C@@H](c2cccc(Cl)c2)[C@@H](c2ccc(Cl)cc2)N(CC2CC2)C1=O (relative stereo)
2090 nM	O=C(O)[C@@H](O)[C@H]1O[C@H](c2cccc(Cl)c2)[C@H](c2ccc(Cl)cc2)N(CC2CC2)C1=O (relative stereo)
838 nM and 623 nM	CCC[C@H](C(N)=O)N1C(=O)[C@H](Cc2ccc(F)cc2)O[C@@H](c2ccc(Cl)cc2)[C@H]1c1ccc(Cl)cc1 (relative stereo) [(2R)-2-((2S,3R,6S)-2,3-bis(4-chlorophenyl)-6-(4-fluorobenzyl]

More lines, now with the values behind:

Compound	IC50
CC1(c2ccc(Cl)cc2)OCC(=O)NC1c1ccc(Cl)cc1 (centres unmarked)	100000 nM
CCCC(C(=O)OCC)N1C(=O)C(CC(=O)O)OC(c2cccc(Cl)c2)C1c1ccc(Cl)cc1 (centres unmarked)	2310 nM
CCC[C@H](C(=O)NC[C@@H](N)C(=O)O)N1C(=O)[C@H](Cc2ccc(C#N)cc2)O[C@@H](c2ccc(Cl)cc2)[C@H]1c1ccc(Cl)cc1	950 nM
CCC[C@H](C(=O)NC[C@@H](NC(=O)OC(C)(C)C)C(=O)O)N1C(=O)[C@H](Cc2ccc(C#N)cc2)O[C@@H](c2ccc(Cl)cc2)[C@H]1c1ccc(Cl)cc1	660 nM
CCC[C@H](C(=O)O)N1C(=O)C(Cc2ccc(F)cc2)O[C@@H](c2cccc(Cl)c2)[C@H]1c1ccc(Cl)cc1 (some centres unmarked)	3920 nM
C=CC[C@H](C(=O)O)N1C(=O)[C@H](Cc2ccc(F)cc2)O[C@@H](c2ccc(Cl)cc2)[C@H]1c1ccc(Cl)cc1 (relative stereo)	2820 nM
CCC[C@@H](C(N)=O)N1C(=O)[C@@H](CC(=O)O)O[C@H](c2ccc(Cl)cc2)[C@@H]1c1ccc(Cl)cc1 (relative stereo)	7820 nM
CCC[C@@H](C)N1C(=O)[C@@H](CC(=O)O)O[C@H](c2cccc(Cl)c2)[C@@H]1c1ccc(Cl)cc1 (relative stereo)	677 nM
CCC[C@@H](CO)N1C(=O)[C@@H](Cc2ccc(F)cc2)O[C@H](c2ccc(Cl)cc2)[C@@H]1c1ccc(Cl)cc1 (relative stereo)	2070 nM
CCC[C@H](C(=O)N1CCC[C@H]1C(=O)OC)N1C(=O)[C@H](Cc2ccc(F)cc2)O[C@@H](c2ccc(Cl)cc2)[C@H]1c1ccc(Cl)cc1 (relative stereo)	1390 nM
CCC[C@H](C(=O)NCCc1nnn[nH]1)N1C(=O)[C@H](Cc2ccc(C#N)cc2)O[C@@H](c2ccc(Cl)cc2)[C@H]1c1ccc(Cl)cc1 (relative stereo)	2030 nM
CCC[C@H](C(=O)NC[C@@H](C)C(=O)O)N1C(=O)[C@H](Cc2ccc(C#N)cc2)O[C@@H](c2ccc(Cl)cc2)[C@H]1c1ccc(Cl)cc1 (relative stereo)	386 nM
CCC[C@H](C(=O)NCc1nnn[nH]1)N1C(=O)[C@H](Cc2ccc(C#N)cc2)O[C@@H](c2ccc(Cl)cc2)[C@H]1c1ccc(Cl)cc1 (relative stereo)	610 nM
CCC[C@H](C(=O)NS(=O)(=O)C1CC1)N1C(=O)[C@H](Cc2ccc(F)cc2)O[C@@H](c2ccc(Cl)cc2)[C@H]1c1ccc(Cl)cc1 (relative stereo)	1210 nM
CCC[C@H](C(=O)N[C@@H](C)C(=O)O)N1C(=O)[C@H](Cc2ccc(C#N)cc2)O[C@@H](c2ccc(Cl)cc2)[C@H]1c1ccc(Cl)cc1 (relative stereo)	419 nM
CCC[C@H](C(=O)N[C@H](C)C(=O)O)N1C(=O)[C@H](Cc2ccc(C#N)cc2)O[C@@H](c2ccc(Cl)cc2)[C@H]1c1ccc(Cl)cc1 (relative stereo)	440 nM
CCC[C@H](C(=O)O)N1C(=O)[C@H](Cc2ccc(-n3cccn3)cc2)O[C@@H](c2ccc(Cl)cc2)[C@H]1c1ccc(Cl)cc1 (relative stereo)	1010 nM
CCC[C@H](C(=O)O)N1C(=O)[C@H](Cc2ccc(S(C)(=O)=O)cc2F)O[C@@H](c2ccc(Cl)cc2)[C@H]1c1ccc(Cl)cc1 (relative stereo)	1820 nM
CCC[C@H](C(N)=O)N1C(=O)[C@H](Cc2ccc(I)cc2)O[C@@H](c2ccc(Cl)cc2)[C@H]1c1ccc(Cl)cc1 (relative stereo)	912 nM
O=C1CO[C@@H](c2ccc(Cl)cc2)[C@@H](c2ccc(Cl)cc2)N1[C@@H](CO)c1ccc(Cl)cc1 (relative stereo)	5000 nM
N#Cc1ccc(C[C@H]2O[C@H](c3ccc(Cl)cc3)[C@H](c3ccc(Cl)cc3)N(C(C(=O)O)C3CC3)C2=O)cc1 (single isomer, unassigned)	8800 nM
